Reference: patent US9382288B2, “Derivatives of steroid benzylamines, having an antiparasitic antibacterial, antimycotic and/or antiviral action” (Justus-Liebig-Universitat Giessen, priority 2010, dated 2016)
Some entries share one result that the patent states for a list of compounds.

Tested on: Plasmodium falciparum, strain 3D7
Experiment: Drug combination assays (FIC, isobolograms), P. falciparum 3D7
Format: cell-based
Conditions: ratios 1:1, 1:3, 3:1

## COc1ccc2c(c1)CCC1C2CC[C@@]2(C)C1CC[C@H]2NCc1ccccc1O (stereo partly drawn) [Compound 2, 17α-(2-Hydroxyphenyl-methylamino)-3-methoxy-estra-1,3,5(10)-triene]
  FIC50 in combination with artemisinin: lower than 1
  FIC50 in combination with artesunate: lower than 1
  FIC90 in combination with artesunate: lower than 1

## COc1ccc2c(c1)CCC1C2CC[C@@]2(C)C1CC[C@@H]2NCc1cc2ccccc2cc1O (stereo partly drawn) [Compound 18, 17β-[(3-Hydroxynaphth-2-yl)-methylamino]-3-methoxy-estra-1,3,5(10)-triene]
  FIC50 in combination with artemisinin: lower than 1
  FIC50 in combination with artesunate: lower than 1

## COc1ccc2c(c1)CCC1C2CC[C@@]2(C)C1CC[C@H]2NCc1cc2ccccc2cc1O (stereo partly drawn) [Compound 41, 17α-[(3-Hydroxy-naphth-2-yl)-methylamino]-3-methoxy-estra-1,3,5(10)-triene]
  FIC50 in combination with artesunate: lower than 1
  FIC90 in combination with artemisinin: lower than 1
  FIC90 in combination with artesunate: lower than 1
